Earlier results, collected in patent publication US6677311B1, “Inducible HSV-TK in transformed cell populations” (priority 1988, dated 2004).
For at least one compound, name, drawing or mass did not settle the structure.

Test system: HSV1-TK
Conditions: addition of Dex to 3B cells; cited from earlier work

## C[C@@H]1C[C@H]2[C@@H]3CCC4=CC(=O)C=C[C@]4(C)[C@@]3(F)[C@@H](O)C[C@]2(C)[C@@]1(O)C(=O)CO [Dex, dexamethasone]
  increase in HSV1-TK activity: 50 fold
